Paper PMC9440282
Construct, isoform or probe ends are uncertain for at least one entry. For some assays here: Negatives hold for the conditions tested. For some assays here: The comparison behind a weaker result is the experiment's own reference, which may not be listed here.

Legend:
Test in all cases: EMSA
[1] = tested on: ASH2L + DPY30; settings: DPY30 increases affinity, soluble complex, sharp band; EMSA: protein dilutions 11.52-[…] mixed 1:1 with 80 nM DNA (40 nM final); protein buffer 25 mM HEPES pH 7.4, 150 mM NaCl, 0.5 mg/mL BSA, 5% glycerol; on ice 30 min; recombinant protein; label: 5'-FAM
[2] = tested on: ASH2L ΔPHD-WH del1-177 (human); settings: apo; EMSA: protein dilutions 11.52-[…] mixed 1:1 with 80 nM DNA (40 nM final); protein buffer 25 mM HEPES pH 7.4, 150 mM NaCl, 0.5 mg/mL BSA, 5% glycerol; on ice 30 min; recombinant protein; residues 178-534; protein details: tag-free after His-SUMO/ULP1 cleavage; label: 5'-FAM
[3] = tested on: ASH2L ΔLL del178-285,del400-440 (human); settings: apo; EMSA: protein dilutions 11.52-[…] mixed 1:1 with 80 nM DNA (40 nM final); protein buffer 25 mM HEPES pH 7.4, 150 mM NaCl, 0.5 mg/mL BSA, 5% glycerol; on ice 30 min; recombinant protein; residues 1-534; protein details: tag-free after His-SUMO/ULP1 cleavage; label: 5'-FAM
[4] = tested on: ASH2L (human); settings: apo, mostly aggregates not entering the gel; EMSA: protein dilutions 11.52-[…] mixed 1:1 with 80 nM DNA (40 nM final); protein buffer 25 mM HEPES pH 7.4, 150 mM NaCl, 0.5 mg/mL BSA, 5% glycerol; on ice 30 min; recombinant protein; residues 1-534; protein details: tag-free after cleavage (His-SUMO/ULP1 or GST/3C); label: 5'-FAM
[5] = target: DPY30 (human) (UniProt Q9C005); settings: DPY30 alone; EMSA: protein dilutions 11.52-[…] mixed 1:1 with 80 nM DNA (40 nM final); protein buffer 25 mM HEPES pH 7.4, 150 mM NaCl, 0.5 mg/mL BSA, 5% glycerol; on ice 30 min; recombinant protein; residues 1-99; protein details: tag-free after cleavage (His-SUMO/ULP1 or GST/3C); label: 5'-FAM

Sequence: TCTCTAGAGTCGACCTGCAGGCATG (double strand) [25 bp FAM-dsDNA]
- binding result [1]: binds
- binding result [2]: binds more weakly
- binding result [3]: no binding
- binding result [4]: binds
- binding result [5]: no binding
